Results taken from article doi:10.1101/2023.04.19.537590.
These are yes or no findings as the source states them, for the method shown. Binding seen in cells or lysates may run through a third protein. Some binding calls cover weakened binding; strength is not graded here.

Sequences of proteins named here, by UniProt entry; tags and fusion partners are left off.
UniProt Q9BZL4: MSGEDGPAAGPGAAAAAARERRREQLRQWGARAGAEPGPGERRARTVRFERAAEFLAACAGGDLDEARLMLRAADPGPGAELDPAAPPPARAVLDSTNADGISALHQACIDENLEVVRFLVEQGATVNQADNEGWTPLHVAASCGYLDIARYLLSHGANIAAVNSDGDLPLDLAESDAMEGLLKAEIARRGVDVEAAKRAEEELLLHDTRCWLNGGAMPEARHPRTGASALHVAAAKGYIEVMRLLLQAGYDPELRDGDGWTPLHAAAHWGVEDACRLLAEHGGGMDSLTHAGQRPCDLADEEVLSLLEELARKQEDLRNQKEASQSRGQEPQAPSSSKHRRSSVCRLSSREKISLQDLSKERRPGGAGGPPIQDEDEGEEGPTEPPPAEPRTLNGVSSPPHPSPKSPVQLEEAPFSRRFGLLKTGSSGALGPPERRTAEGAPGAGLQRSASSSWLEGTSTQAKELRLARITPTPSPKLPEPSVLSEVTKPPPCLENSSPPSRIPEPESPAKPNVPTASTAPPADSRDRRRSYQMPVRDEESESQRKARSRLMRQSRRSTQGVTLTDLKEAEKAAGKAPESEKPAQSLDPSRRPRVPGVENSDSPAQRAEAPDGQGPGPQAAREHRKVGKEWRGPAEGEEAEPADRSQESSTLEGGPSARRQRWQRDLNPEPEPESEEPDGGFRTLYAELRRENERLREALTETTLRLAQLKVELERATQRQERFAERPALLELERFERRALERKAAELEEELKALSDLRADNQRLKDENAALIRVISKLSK

Tests used:
[1] = target: protein phosphatase 1 regulatory subunit 12C (human (endogenous in right atrial appendage tissue)) (UniProt Q9BZL4); assay: co-IP
[2] = target: T1, protein phosphatase 1 regulatory subunit 12C (in HL-1 cells) (mouse (endogenous in HL-1)) (UniProt Q3UMT1); assay: co-IP
T1 sequence: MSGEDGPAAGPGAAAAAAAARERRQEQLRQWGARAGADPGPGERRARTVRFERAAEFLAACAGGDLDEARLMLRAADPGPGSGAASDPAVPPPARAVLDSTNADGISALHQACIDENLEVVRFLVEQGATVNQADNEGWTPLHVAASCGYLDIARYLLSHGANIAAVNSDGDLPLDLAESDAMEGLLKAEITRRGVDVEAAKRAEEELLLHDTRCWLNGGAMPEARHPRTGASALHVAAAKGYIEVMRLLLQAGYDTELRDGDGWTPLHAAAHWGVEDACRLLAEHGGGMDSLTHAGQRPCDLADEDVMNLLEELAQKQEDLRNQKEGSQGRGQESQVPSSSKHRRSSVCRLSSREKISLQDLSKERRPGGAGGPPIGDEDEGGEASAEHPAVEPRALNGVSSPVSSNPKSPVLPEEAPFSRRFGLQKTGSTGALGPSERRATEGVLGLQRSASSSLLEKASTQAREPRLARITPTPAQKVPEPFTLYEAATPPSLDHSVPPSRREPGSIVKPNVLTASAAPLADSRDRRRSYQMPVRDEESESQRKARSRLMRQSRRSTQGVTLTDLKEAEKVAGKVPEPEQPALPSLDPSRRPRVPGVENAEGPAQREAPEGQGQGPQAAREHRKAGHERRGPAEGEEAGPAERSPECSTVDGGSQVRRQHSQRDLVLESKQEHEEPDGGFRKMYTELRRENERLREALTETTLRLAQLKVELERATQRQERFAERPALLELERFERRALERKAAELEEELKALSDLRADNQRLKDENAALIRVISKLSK

B1: atrial myosin light chain 2 (protein, UniProt Q01449 1-175)
chain: MASRKAGTRGKVAATKQAQRGSSNVFSMFEQAQIQEFKEAFSCIDQNRDGIICKADLRETYSQLGKVSVPEEELDAMLQEGKGPINFTVFLTLFGEKLNGTDPEEAILSAFRMFDPSGKGVVNKDEFKQLLLTQADKFSPAEVEQMFALTPMDLAGNIDYKSLCYIITHGDEKEE
Q: How did the binding [1] turn out when B1 was run?
A: binds

B2: atrial myosin light chain 2 (in HL-1 cells) (protein, UniProt Q9QVP4 1-175)
chain: MASRKAGTRGKAAATKQAQRGSSNVFSMFEQAQIQEFKEAFSCIDQNRDGIICKSDLKETYSQLGRVSVPEEELDAMLQEGKGPINFTVFLTLFGEKLNGTDPEEAILSAFRMFDPSGQGVVNKEEFKQLLMTQADKFSPAEVEQLFALTPMDLAGNIDYKSLCYIITHGDEKEE
Q: For B2, which binding [2] is on record?
A: binds
